# Measurements taken from article PMC8364686, “Safety, tolerability, pharmacokinetics and pharmacodynamics of single oral doses of BI 187004, an inhibitor of 11beta-hydroxysteroid dehydrogenase-1, in healthy male volunteers with overweight or obesity” (Clinical Diabetes and Endocrinology, 2021).
# “And” between values parts separate entries of the source, which are not always exact repeats. Identical values can stand only once. Further values from the same series stand in other lists.
# Test: Plasma pharmacokinetics of BI 187004 after single oral doses (LC–MS/MS)
# Conditions: individual subjects
structure (smiles),measurement,setting,value
N#Cc1ccc2c(c1)[C@H]1CCCN(C(=O)c3ccc4[nH]cnc4c3)[C@H]1C2 [BI 187004],BI 187004 plasma concentrations,"80 mg single oral, planned time 0.5 h",304 nmol/L and 1310 nmol/L and 738 nmol/L and 4480 nmol/L and 539 nmol/L and 3280 nmol/L
same,BI 187004 plasma concentrations,"80 mg single oral, planned time 1 h",771 nmol/L and 1380 nmol/L and 2340 nmol/L and 4770 nmol/L and 2250 nmol/L and 3430 nmol/L
same,BI 187004 plasma concentrations,"80 mg single oral, planned time 1.5 h",958 nmol/L and 1380 nmol/L and 2790 nmol/L and 4150 nmol/L and 2290 nmol/L and 3410 nmol/L
same,BI 187004 plasma concentrations,"80 mg single oral, planned time 2 h",1000 nmol/L and 1460 nmol/L and 2570 nmol/L and 3590 nmol/L and 2230 nmol/L and 3110 nmol/L
same,BI 187004 plasma concentrations,"80 mg single oral, planned time 2.5 h",1200 nmol/L and 1450 nmol/L and 2940 nmol/L and 3200 nmol/L and 2640 nmol/L and 2650 nmol/L
same,BI 187004 plasma concentrations,"80 mg single oral, planned time 3 h",1050 nmol/L and 1360 nmol/L and 2570 nmol/L and 3340 nmol/L and 2360 nmol/L and 2750 nmol/L
same,BI 187004 plasma concentrations,"80 mg single oral, planned time 4 h",936 nmol/L and 1380 nmol/L and 2750 nmol/L and 3200 nmol/L and 2220 nmol/L and 2700 nmol/L
same,BI 187004 plasma concentrations,"80 mg single oral, planned time 5 h",905 nmol/L and 1350 nmol/L and 2080 nmol/L and 3210 nmol/L and 2000 nmol/L and 2350 nmol/L
same,BI 187004 plasma concentrations,"80 mg single oral, planned time 6 h",930 nmol/L and 1210 nmol/L and 2080 nmol/L and 2460 nmol/L and 1750 nmol/L and 1990 nmol/L
same,BI 187004 plasma concentrations,"80 mg single oral, planned time 8 h",1100 nmol/L and 1420 nmol/L and 2190 nmol/L and 2840 nmol/L and 1630 nmol/L and 1750 nmol/L
same,BI 187004 plasma concentrations,"80 mg single oral, planned time 10 h",1040 nmol/L and 1200 nmol/L and 1870 nmol/L and 2570 nmol/L and 1370 nmol/L and 1540 nmol/L
same,BI 187004 plasma concentrations,"80 mg single oral, planned time 12 h",1000 nmol/L and 959 nmol/L and 1680 nmol/L and 2210 nmol/L and 1190 nmol/L and 1230 nmol/L
same,BI 187004 plasma concentrations,"80 mg single oral, planned time 24 h",767 nmol/L and 605 nmol/L and 1100 nmol/L and 1560 nmol/L and 856 nmol/L and 673 nmol/L
same,BI 187004 plasma concentrations,"80 mg single oral, planned time 36 h",223 nmol/L and 284 nmol/L and 538 nmol/L and 678 nmol/L and 417 nmol/L and 327 nmol/L
same,BI 187004 plasma concentrations,"80 mg single oral, planned time 48 h",134 nmol/L and 163 nmol/L and 332 nmol/L and 596 nmol/L and 248 nmol/L and 211 nmol/L
same,BI 187004 plasma concentrations,"80 mg single oral, planned time 72 h",46.3 nmol/L and 49.0 nmol/L and 81.2 nmol/L and 234 nmol/L and 82.3 nmol/L and 46.9 nmol/L
same,BI 187004 plasma concentrations,"80 mg single oral, planned time 96 h",23.3 nmol/L and 18.8 nmol/L and 24.3 nmol/L and 110 nmol/L and 81.0 nmol/L and 11.9 nmol/L
same,BI 187004 plasma concentrations,"160 mg single oral, planned time 0.5 h",5710 nmol/L and 8780 nmol/L and 4660 nmol/L and 8640 nmol/L and 7950 nmol/L and 2520 nmol/L
same,BI 187004 plasma concentrations,"160 mg single oral, planned time 1 h",8460 nmol/L and 7170 nmol/L and 7510 nmol/L and 7770 nmol/L and 8740 nmol/L and 3920 nmol/L
same,BI 187004 plasma concentrations,"160 mg single oral, planned time 1.5 h",7110 nmol/L and 8830 nmol/L and 7270 nmol/L and 7780 nmol/L and 5190 nmol/L
same,BI 187004 plasma concentrations,"160 mg single oral, planned time 2 h",6610 nmol/L and 8640 nmol/L and 6360 nmol/L and 6910 nmol/L and 6660 nmol/L
same,BI 187004 plasma concentrations,"160 mg single oral, planned time 2.5 h",6250 nmol/L and 8030 nmol/L and 6070 nmol/L and 6820 nmol/L and 6270 nmol/L
same,BI 187004 plasma concentrations,"160 mg single oral, planned time 3 h",5820 nmol/L and 7450 nmol/L and 5770 nmol/L and 5860 nmol/L and 5330 nmol/L
same,BI 187004 plasma concentrations,"160 mg single oral, planned time 4 h",6210 nmol/L and 6040 nmol/L and 5530 nmol/L and 6750 nmol/L and 5060 nmol/L
same,BI 187004 plasma concentrations,"160 mg single oral, planned time 5 h",5220 nmol/L and 4630 nmol/L and 5160 nmol/L and 4950 nmol/L and 4850 nmol/L
same,BI 187004 plasma concentrations,"160 mg single oral, planned time 6 h",3980 nmol/L and 4420 nmol/L and 4830 nmol/L and 5320 nmol/L and 3430 nmol/L
same,BI 187004 plasma concentrations,"160 mg single oral, planned time 8 h",2580 nmol/L and 4030 nmol/L and 3800 nmol/L and 4580 nmol/L and 3680 nmol/L
same,BI 187004 plasma concentrations,"160 mg single oral, planned time 10 h",2950 nmol/L and 3120 nmol/L and 3410 nmol/L and 2810 nmol/L and 4290 nmol/L and 1940 nmol/L
same,BI 187004 plasma concentrations,"160 mg single oral, planned time 12 h",2810 nmol/L and 2940 nmol/L and 2920 nmol/L and 3640 nmol/L and 2890 nmol/L
same,BI 187004 plasma concentrations,"160 mg single oral, planned time 24 h",1530 nmol/L and 1410 nmol/L and 1660 nmol/L and 2690 nmol/L and 1440 nmol/L
same,BI 187004 plasma concentrations,"160 mg single oral, planned time 36 h",570 nmol/L and 655 nmol/L and 576 nmol/L and 476 nmol/L and 1390 nmol/L and 631 nmol/L
same,BI 187004 plasma concentrations,"160 mg single oral, planned time 48 h",344 nmol/L and 333 nmol/L and 359 nmol/L and 374 nmol/L and 1000 nmol/L and 329 nmol/L
same,BI 187004 plasma concentrations,"160 mg single oral, planned time 72 h",100 nmol/L and 113 nmol/L and 103 nmol/L and 121 nmol/L and 312 nmol/L and 85.9 nmol/L
same,BI 187004 plasma concentrations,"160 mg single oral, planned time 96 h",28.0 nmol/L and 32.1 nmol/L and 46.8 nmol/L and 31.7 nmol/L
same,BI 187004 plasma concentrations,"240 mg single oral, planned time 0.5 h",130 nmol/L and 7450 nmol/L and 4950 nmol/L and 6100 nmol/L and 8440 nmol/L and 4180 nmol/L
same,BI 187004 plasma concentrations,"240 mg single oral, planned time 1 h",440 nmol/L and 10700 nmol/L and 9740 nmol/L and 7600 nmol/L and 9250 nmol/L and 7180 nmol/L
same,BI 187004 plasma concentrations,"240 mg single oral, planned time 1.5 h",811 nmol/L and 8600 nmol/L and 9030 nmol/L and 7090 nmol/L and 6280 nmol/L and 6690 nmol/L
same,BI 187004 plasma concentrations,"240 mg single oral, planned time 2 h",543 nmol/L and 9220 nmol/L and 8860 nmol/L and 6350 nmol/L and 5400 nmol/L and 7210 nmol/L
same,BI 187004 plasma concentrations,"240 mg single oral, planned time 2.5 h",605 nmol/L and 8490 nmol/L and 8510 nmol/L and 6340 nmol/L and 5680 nmol/L and 8190 nmol/L
same,BI 187004 plasma concentrations,"240 mg single oral, planned time 3 h",388 nmol/L and 6980 nmol/L and 5360 nmol/L and 6510 nmol/L and 5530 nmol/L and 6150 nmol/L
same,BI 187004 plasma concentrations,"240 mg single oral, planned time 4 h",575 nmol/L and 5540 nmol/L and 8420 nmol/L and 5820 nmol/L and 5390 nmol/L and 7330 nmol/L
same,BI 187004 plasma concentrations,"240 mg single oral, planned time 5 h",494 nmol/L and 3960 nmol/L and 6570 nmol/L and 5820 nmol/L and 5040 nmol/L and 6780 nmol/L
same,BI 187004 plasma concentrations,"240 mg single oral, planned time 6 h",452 nmol/L and 5150 nmol/L and 6370 nmol/L and 5390 nmol/L and 2610 nmol/L and 5990 nmol/L
same,BI 187004 plasma concentrations,"240 mg single oral, planned time 8 h",181 nmol/L and 4780 nmol/L and 5380 nmol/L and 3960 nmol/L and 3640 nmol/L and 5130 nmol/L
same,BI 187004 plasma concentrations,"240 mg single oral, planned time 10 h",313 nmol/L and 4080 nmol/L and 5800 nmol/L and 3310 nmol/L and 3060 nmol/L and 4160 nmol/L
same,BI 187004 plasma concentrations,"240 mg single oral, planned time 12 h",258 nmol/L and 3440 nmol/L and 3900 nmol/L and 3170 nmol/L and 2610 nmol/L and 2180 nmol/L
same,BI 187004 plasma concentrations,"240 mg single oral, planned time 24 h",2500 nmol/L and 2630 nmol/L and 1720 nmol/L and 1530 nmol/L and 2460 nmol/L
same,BI 187004 plasma concentrations,"240 mg single oral, planned time 36 h",567 nmol/L and 1200 nmol/L and 1340 nmol/L and 787 nmol/L and 677 nmol/L and 987 nmol/L
same,BI 187004 plasma concentrations,"240 mg single oral, planned time 48 h",255 nmol/L and 755 nmol/L and 794 nmol/L and 376 nmol/L and 321 nmol/L and 545 nmol/L
same,BI 187004 plasma concentrations,"240 mg single oral, planned time 72 h",54.1 nmol/L and 323 nmol/L and 312 nmol/L and 54.4 nmol/L and 71.7 nmol/L and 126 nmol/L
same,BI 187004 plasma concentrations,"240 mg single oral, planned time 96 h",15.8 nmol/L and 181 nmol/L and 68.2 nmol/L and 18.2 nmol/L and 36.4 nmol/L
same,BI 187004 plasma concentrations,"360 mg single oral, planned time 0.5 h",15400 nmol/L and 16800 nmol/L and 11000 nmol/L and 5800 nmol/L and 7980 nmol/L and 12200 nmol/L
same,BI 187004 plasma concentrations,"360 mg single oral, planned time 1 h",18400 nmol/L and 12000 nmol/L and 14500 nmol/L and 7170 nmol/L and 13600 nmol/L and 13000 nmol/L
same,BI 187004 plasma concentrations,"360 mg single oral, planned time 1.5 h",15900 nmol/L and 10800 nmol/L and 13900 nmol/L and 6450 nmol/L and 12400 nmol/L and 9540 nmol/L
same,BI 187004 plasma concentrations,"360 mg single oral, planned time 2 h",14500 nmol/L and 10700 nmol/L and 10900 nmol/L and 6660 nmol/L and 10400 nmol/L and 12300 nmol/L
same,BI 187004 plasma concentrations,"360 mg single oral, planned time 2.5 h",14600 nmol/L and 9770 nmol/L and 14100 nmol/L and 6880 nmol/L and 5660 nmol/L and 10700 nmol/L
same,BI 187004 plasma concentrations,"360 mg single oral, planned time 3 h",12900 nmol/L and 9220 nmol/L and 7970 nmol/L and 6300 nmol/L and 9450 nmol/L and 10300 nmol/L
same,BI 187004 plasma concentrations,"360 mg single oral, planned time 4 h",12200 nmol/L and 8290 nmol/L and 10400 nmol/L and 5670 nmol/L and 10100 nmol/L and 10900 nmol/L
same,BI 187004 plasma concentrations,"360 mg single oral, planned time 5 h",6320 nmol/L and 8770 nmol/L and 8180 nmol/L and 4810 nmol/L and 7560 nmol/L and 9630 nmol/L
same,BI 187004 plasma concentrations,"360 mg single oral, planned time 6 h",8320 nmol/L and 6450 nmol/L and 5790 nmol/L and 6310 nmol/L
same,BI 187004 plasma concentrations,"360 mg single oral, planned time 8 h",7780 nmol/L and 6280 nmol/L and 5060 nmol/L and 6260 nmol/L and 6210 nmol/L
same,BI 187004 plasma concentrations,"360 mg single oral, planned time 10 h",7680 nmol/L and 6390 nmol/L and 4960 nmol/L and 3360 nmol/L and 6280 nmol/L and 4310 nmol/L
same,BI 187004 plasma concentrations,"360 mg single oral, planned time 12 h",5510 nmol/L and 4380 nmol/L and 3780 nmol/L and 4600 nmol/L and 4650 nmol/L
same,BI 187004 plasma concentrations,"360 mg single oral, planned time 24 h",4740 nmol/L and 3110 nmol/L and 1790 nmol/L and 2300 nmol/L and 3010 nmol/L and 2090 nmol/L
same,BI 187004 plasma concentrations,"360 mg single oral, planned time 36 h",1970 nmol/L and 1990 nmol/L and 830 nmol/L and 1300 nmol/L and 1680 nmol/L and 1090 nmol/L
same,BI 187004 plasma concentrations,"360 mg single oral, planned time 48 h",1470 nmol/L and 1220 nmol/L and 740 nmol/L and 997 nmol/L and 587 nmol/L
same,BI 187004 plasma concentrations,"360 mg single oral, planned time 72 h",497 nmol/L and 516 nmol/L and 69.1 nmol/L and 235 nmol/L and 326 nmol/L and 164 nmol/L
same,BI 187004 plasma concentrations,"360 mg single oral, planned time 96 h",174 nmol/L and 170 nmol/L and 16.8 nmol/L and 61.1 nmol/L and 102 nmol/L and 46.3 nmol/L
